Results on 1 compound are retold here after patent US11207283B2, “Inactivators of toxoplasma gondii ornithine aminotransferase for treating toxoplasmosis and malaria” (priority 2016, dated 2021).

The test system of the experiment is TgOAT. Particulars: read-out: Km of ornithine against TgOAT; Michaelis-Menten fit, 100 μg/mL TgOAT.

For orientation: Km means the concentration of substrate that gives half-maximal velocity. Regarding `NCCC[C@H](N)C(=O)O` [ornithine, L-ornithine], the Km is 31 ± 4 mM.
